Changes are numbered by the printed parent chain. Results are given in words; binding and its absence hold for the method and conditions named. Binding seen in cells or lysates may run through a third protein. Some results given as binding are weak or reduced against the parent protein; the word gives no strength. For part of these data: Tags and fused reporters may be left off the sequences shown.
What was measured:
[1] = biological target: T1, FLAG-tagged borealin W70E/F74E mutant (human) (UniProt Q53HL2); experiment: co-IP; 293T cells co-transfected with FLAG-tagged borealin (WT or mutant) and HA–Cdh1, 10 µM MG132 for 5 h; extracts immunoprecipitated with monoclonal antibody against FLAG, immunoblotting
T1 sequence: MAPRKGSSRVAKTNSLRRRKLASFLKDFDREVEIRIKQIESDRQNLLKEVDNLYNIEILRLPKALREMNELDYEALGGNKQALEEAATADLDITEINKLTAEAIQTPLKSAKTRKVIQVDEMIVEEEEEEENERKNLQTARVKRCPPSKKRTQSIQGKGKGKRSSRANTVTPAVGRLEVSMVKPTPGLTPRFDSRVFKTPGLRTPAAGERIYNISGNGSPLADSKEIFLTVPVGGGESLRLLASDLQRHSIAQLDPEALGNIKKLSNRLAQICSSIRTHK

The chains behind the UniProt entries cited, without tags or fusion partners.
UniProt Q9UM11: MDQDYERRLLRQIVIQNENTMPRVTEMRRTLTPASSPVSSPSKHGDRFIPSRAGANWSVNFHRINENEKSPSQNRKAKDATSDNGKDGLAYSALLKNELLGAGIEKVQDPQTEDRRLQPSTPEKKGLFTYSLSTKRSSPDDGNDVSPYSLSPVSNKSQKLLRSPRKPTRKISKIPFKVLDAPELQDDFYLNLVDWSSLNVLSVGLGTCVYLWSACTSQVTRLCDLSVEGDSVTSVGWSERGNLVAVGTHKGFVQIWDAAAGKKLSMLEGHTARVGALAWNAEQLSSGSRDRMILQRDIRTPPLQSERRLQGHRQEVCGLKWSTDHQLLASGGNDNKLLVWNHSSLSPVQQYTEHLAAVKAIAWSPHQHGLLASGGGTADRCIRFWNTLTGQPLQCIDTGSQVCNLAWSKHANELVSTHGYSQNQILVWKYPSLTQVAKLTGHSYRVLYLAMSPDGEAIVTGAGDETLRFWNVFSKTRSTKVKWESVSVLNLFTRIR

[2] = biological target: T2, FLAG-tagged wild-type (WT) borealin (human) (UniProt Q53HL2); experiment: as above
T2 sequence: T1 sequence with E70W, E74F

[3] = biological target: T3, FLAG-tagged borealin 5E mutant (L21E/F24E/L25E/F28E/V32E) (human) (UniProt Q53HL2); experiment: as above
T3 sequence: T1 sequence with L21E, F24E, L25E, F28E, V32E, E70W, E74F

[4] = biological target: T1, FLAG-tagged borealin W70E/F74E mutant (human); experiment: co-IP; borealin deletion and point mutants with Cdh1 (Fig. S3B, Fig. S4C); legends not shown
[5] = biological target: T4, borealin Δ18–39 mutant (human) (UniProt Q53HL2); experiment: as above
T4 sequence: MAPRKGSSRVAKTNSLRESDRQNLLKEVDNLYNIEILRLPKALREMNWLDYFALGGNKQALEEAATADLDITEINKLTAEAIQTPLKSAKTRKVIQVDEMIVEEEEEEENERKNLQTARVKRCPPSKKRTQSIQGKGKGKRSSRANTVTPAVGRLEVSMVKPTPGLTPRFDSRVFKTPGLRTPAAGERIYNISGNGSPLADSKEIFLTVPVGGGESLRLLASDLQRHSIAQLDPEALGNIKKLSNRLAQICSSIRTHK

[6] = biological target: T5, GST-tagged wild-type (WT) borealin (human) (UniProt Q53HL2); experiment: pull-down; GST-tagged borealin on glutathione resin (GST SpinTrap) incubated with 15 µl IVT Cdh1 for 2 h at 4°C in binding buffer (10 mM Tris-HCl pH 7.6, 150 mM NaCl, 0.5 mM EDTA, 10 mM NaF, 0.1% Nonidet P-40); eluate blotted with anti-Cdh1; only the target purified
T5 sequence: T1 sequence with E70W, E74F

Measured: binding

HA-tagged Cdh1 (from UniProt Q9UM11 1-496)
not listed: [6]
binds: all other assays above

in vitro translated (IVT) Cdh1 (from UniProt Q9UM11 1-496)
binds: [6]

From article PMC7520452
